From ChEMBL document CHEMBL4316593 (Eur J Med Chem, 2019)
The source gives many values for each of these; only a part stands here.

Experiments:
Type in all cases: cell-based
Details in all cases: U-87MG ATCC
[1] = Inhibition of RTK/PI3K/AKT/mTOR signaling in human U87 cells assessed as up regulation of BCL2 binding component 3 gene expression at cytotoxic IC50 measured after 48 hrs relative to control
[2] = Inhibition of RTK/PI3K/AKT/mTOR signaling in human U87 cells assessed as up regulation of discoidin domain receptor tyrosine kinase 1 gene expression at cytotoxic IC50 measured after 48 hrs relative to control
[3] = Inhibition of RTK/PI3K/AKT/mTOR signaling in human U87 cells assessed as down regulation of B2M gene expression at cytotoxic IC50 measured after 48 hrs relative to control
[4] = Inhibition of RTK/PI3K/AKT/mTOR signaling in human U87 cells assessed as up regulation of GALE gene expression at cytotoxic IC50 measured after 48 hrs relative to control
[5] = Inhibition of RTK/PI3K/AKT/mTOR signaling in human U87 cells assessed as down regulation of TXNDC17 gene expression at cytotoxic IC50 measured after 48 hrs relative to control
[6] = Inhibition of RTK/PI3K/AKT/mTOR signaling in human U87 cells assessed as up regulation of KIAA0895 like gene expression at cytotoxic IC50 measured after 48 hrs relative to control
[7] = Inhibition of RTK/PI3K/AKT/mTOR signaling in human U87 cells assessed as up regulation of zinc finger MYM-type containing 3 gene expression at cytotoxic IC50 measured after 48 hrs relative to control
[8] = Inhibition of RTK/PI3K/AKT/mTOR signaling in human U87 cells assessed as down regulation of DUSP14 gene expression at cytotoxic IC50 measured after 48 hrs relative to control
[9] = Inhibition of RTK/PI3K/AKT/mTOR signaling in human U87 cells assessed as down regulation of OTULIN gene expression at cytotoxic IC50 measured after 48 hrs relative to control
[10] = Inhibition of RTK/PI3K/AKT/mTOR signaling in human U87 cells assessed as down regulation of ZFYVE1 gene expression at cytotoxic IC50 measured after 48 hrs relative to control
[11] = Inhibition of RTK/PI3K/AKT/mTOR signaling in human U87 cells assessed as up regulation of CDC42 effector protein 4 gene expression at cytotoxic IC50 measured after 48 hrs relative to control
[12] = Inhibition of RTK/PI3K/AKT/mTOR signaling in human U87 cells assessed as up regulation of RPL6 gene expression at cytotoxic IC50 measured after 48 hrs relative to control
[13] = Inhibition of RTK/PI3K/AKT/mTOR signaling in human U87 cells assessed as up regulation of dynein axonemal assembly factor 3 gene expression at cytotoxic IC50 measured after 48 hrs relative to control
[14] = Inhibition of RTK/PI3K/AKT/mTOR signaling in human U87 cells assessed as up regulation of coatomer protein complex subunit zeta 1 gene expression at cytotoxic IC50 measured after 48 hrs relative to control
[15] = Inhibition of RTK/PI3K/AKT/mTOR signaling in human U87 cells assessed as up regulation of ArfGAP with GTPase domain, ankyrin repeat and PH domain 2 gene expression at cytotoxic IC50 measured after 48 hrs relative to control
[16] = Inhibition of RTK/PI3K/AKT/mTOR signaling in human U87 cells assessed as up regulation of doublecortin like kinase 1 gene expression at cytotoxic IC50 measured after 48 hrs relative to control
[17] = Inhibition of RTK/PI3K/AKT/mTOR signaling in human U87 cells assessed as up regulation of CCDC102A gene expression at cytotoxic IC50 measured after 48 hrs relative to control
[18] = Inhibition of RTK/PI3K/AKT/mTOR signaling in human U87 cells assessed as down regulation of IER2 gene expression at cytotoxic IC50 measured after 48 hrs relative to control
[19] = Inhibition of RTK/PI3K/AKT/mTOR signaling in human U87 cells assessed as up regulation of FLRT1 gene expression at cytotoxic IC50 measured after 48 hrs relative to control
[20] = Inhibition of RTK/PI3K/AKT/mTOR signaling in human U87 cells assessed as down regulation of SKAP2 gene expression at cytotoxic IC50 measured after 48 hrs relative to control
[21] = Inhibition of RTK/PI3K/AKT/mTOR signaling in human U87 cells assessed as down regulation of ARPC2 gene expression at cytotoxic IC50 measured after 48 hrs relative to control
[22] = Inhibition of RTK/PI3K/AKT/mTOR signaling in human U87 cells assessed as down regulation of SDSL gene expression at cytotoxic IC50 measured after 48 hrs relative to control
[23] = Inhibition of RTK/PI3K/AKT/mTOR signaling in human U87 cells assessed as up regulation of exocyst complex component 4 gene expression at cytotoxic IC50 measured after 48 hrs relative to control
[24] = Inhibition of RTK/PI3K/AKT/mTOR signaling in human U87 cells assessed as down regulation of SP4 gene expression at cytotoxic IC50 measured after 48 hrs relative to control
[25] = Inhibition of RTK/PI3K/AKT/mTOR signaling in human U87 cells assessed as down regulation of TAF12 gene expression at cytotoxic IC50 measured after 48 hrs relative to control
[26] = Inhibition of RTK/PI3K/AKT/mTOR signaling in human U87 cells assessed as down regulation of PSMC5 gene expression at cytotoxic IC50 measured after 48 hrs relative to control
[27] = Inhibition of RTK/PI3K/AKT/mTOR signaling in human U87 cells assessed as up regulation of SLC17A9 gene expression at cytotoxic IC50 measured after 48 hrs relative to control
[28] = Inhibition of RTK/PI3K/AKT/mTOR signaling in human U87 cells assessed as up regulation of inhibitor of growth family member 5 gene expression at cytotoxic IC50 measured after 48 hrs relative to control
[29] = Inhibition of RTK/PI3K/AKT/mTOR signaling in human U87 cells assessed as down regulation of MAIP1 gene expression at cytotoxic IC50 measured after 48 hrs relative to control
[30] = Inhibition of RTK/PI3K/AKT/mTOR signaling in human U87 cells assessed as up regulation of FOXO6 gene expression at cytotoxic IC50 measured after 48 hrs relative to control
[31] = Inhibition of RTK/PI3K/AKT/mTOR signaling in human U87 cells assessed as down regulation of BRD7 gene expression at cytotoxic IC50 measured after 48 hrs relative to control
[32] = Inhibition of RTK/PI3K/AKT/mTOR signaling in human U87 cells assessed as up regulation of C-terminal binding protein 2 gene expression at cytotoxic IC50 measured after 48 hrs relative to control

CC(=O)C(=NNc1ccccc1C#N)C(C)=O
log2FC [1]: 0.834 | log2FC [2]: 1.16 | log2FC [3]: -0.468 | log2FC [4]: 0.507 | log2FC [5]: -0.926 | log2FC [6]: 1.05 | log2FC [7]: 1.32 | log2FC [8]: -0.678 | log2FC [9]: -0.978 | log2FC [10]: -1.05 | log2FC [11]: 0.721 | log2FC [12]: 0.427 | log2FC [13]: 1.34 | log2FC [14]: 0.765 | log2FC [15]: 0.782 | log2FC [16]: 1.42 | log2FC [17]: 2.12 | log2FC [18]: -0.69 | log2FC [19]: 3.04 | log2FC [20]: -0.605 | log2FC [21]: -0.527 | log2FC [22]: -1.23 | log2FC [23]: 0.71 | log2FC [24]: -0.895 | log2FC [25]: -0.59 | log2FC [26]: -0.605 | log2FC [27]: 1.96 | log2FC [28]: 0.856 | log2FC [29]: -1.04 | log2FC [30]: 2.49 | log2FC [31]: -0.833 | log2FC [32]: 1.08
